Experimental data: PMC6460792
No constants are given. Whether binding was seen depends on the method and setting. Some entries that bind do so weakly or less than the wild type.

Protein sequences, listed by entry. Tags and fused reporters are not part of them. Lines headed by an entry give the natural chain unless they say otherwise; changes in a name come on top. Residues count along the entry.
UniProt P63159: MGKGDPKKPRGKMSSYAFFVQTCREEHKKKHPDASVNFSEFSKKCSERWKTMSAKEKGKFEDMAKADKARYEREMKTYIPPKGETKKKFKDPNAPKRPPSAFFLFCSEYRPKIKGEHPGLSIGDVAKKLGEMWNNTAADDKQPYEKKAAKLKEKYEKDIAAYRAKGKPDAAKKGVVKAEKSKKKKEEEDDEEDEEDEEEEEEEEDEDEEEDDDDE
UniProt Q15109, residues 23-342: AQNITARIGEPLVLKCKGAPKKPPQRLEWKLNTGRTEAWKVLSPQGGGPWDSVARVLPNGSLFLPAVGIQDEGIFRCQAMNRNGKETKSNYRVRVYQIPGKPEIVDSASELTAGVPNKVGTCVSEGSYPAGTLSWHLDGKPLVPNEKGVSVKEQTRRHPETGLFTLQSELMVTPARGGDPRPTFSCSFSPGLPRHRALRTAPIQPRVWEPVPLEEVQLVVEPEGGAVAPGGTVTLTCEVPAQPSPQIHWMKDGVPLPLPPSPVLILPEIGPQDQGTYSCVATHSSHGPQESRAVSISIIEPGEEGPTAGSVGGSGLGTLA

Molecular target: Recombinant HMGB1 (disulfide isoform), full length high mobility group box 1 protein (UniProt P63159)
Assay: ELISA; HMGB1 coated on Maxisorp plate (60 nM solution); human RAGE-Fc (0.25 nM) incubated with or without box A (10 uM) in PBS with 0.05% Tween 20 at room temperature for 30 min, then added to the plate for 100 min; detected with anti-human HRP antibody, OD 450 nm; both purified

binding: binds
Substance: Recombinant human RAGE-Fc chimera protein (from UniProt Q15109 23-342) (Fc fusion)
